This passage reports binding results from publication PMC8887125, “RBBP6 activates the pre-mRNA 3′ end processing machinery in humans” (Genes & Development, 2022).

Sequences of proteins named here, by UniProt entry; tags and fusion partners are left off.
UniProt Q7Z6E9: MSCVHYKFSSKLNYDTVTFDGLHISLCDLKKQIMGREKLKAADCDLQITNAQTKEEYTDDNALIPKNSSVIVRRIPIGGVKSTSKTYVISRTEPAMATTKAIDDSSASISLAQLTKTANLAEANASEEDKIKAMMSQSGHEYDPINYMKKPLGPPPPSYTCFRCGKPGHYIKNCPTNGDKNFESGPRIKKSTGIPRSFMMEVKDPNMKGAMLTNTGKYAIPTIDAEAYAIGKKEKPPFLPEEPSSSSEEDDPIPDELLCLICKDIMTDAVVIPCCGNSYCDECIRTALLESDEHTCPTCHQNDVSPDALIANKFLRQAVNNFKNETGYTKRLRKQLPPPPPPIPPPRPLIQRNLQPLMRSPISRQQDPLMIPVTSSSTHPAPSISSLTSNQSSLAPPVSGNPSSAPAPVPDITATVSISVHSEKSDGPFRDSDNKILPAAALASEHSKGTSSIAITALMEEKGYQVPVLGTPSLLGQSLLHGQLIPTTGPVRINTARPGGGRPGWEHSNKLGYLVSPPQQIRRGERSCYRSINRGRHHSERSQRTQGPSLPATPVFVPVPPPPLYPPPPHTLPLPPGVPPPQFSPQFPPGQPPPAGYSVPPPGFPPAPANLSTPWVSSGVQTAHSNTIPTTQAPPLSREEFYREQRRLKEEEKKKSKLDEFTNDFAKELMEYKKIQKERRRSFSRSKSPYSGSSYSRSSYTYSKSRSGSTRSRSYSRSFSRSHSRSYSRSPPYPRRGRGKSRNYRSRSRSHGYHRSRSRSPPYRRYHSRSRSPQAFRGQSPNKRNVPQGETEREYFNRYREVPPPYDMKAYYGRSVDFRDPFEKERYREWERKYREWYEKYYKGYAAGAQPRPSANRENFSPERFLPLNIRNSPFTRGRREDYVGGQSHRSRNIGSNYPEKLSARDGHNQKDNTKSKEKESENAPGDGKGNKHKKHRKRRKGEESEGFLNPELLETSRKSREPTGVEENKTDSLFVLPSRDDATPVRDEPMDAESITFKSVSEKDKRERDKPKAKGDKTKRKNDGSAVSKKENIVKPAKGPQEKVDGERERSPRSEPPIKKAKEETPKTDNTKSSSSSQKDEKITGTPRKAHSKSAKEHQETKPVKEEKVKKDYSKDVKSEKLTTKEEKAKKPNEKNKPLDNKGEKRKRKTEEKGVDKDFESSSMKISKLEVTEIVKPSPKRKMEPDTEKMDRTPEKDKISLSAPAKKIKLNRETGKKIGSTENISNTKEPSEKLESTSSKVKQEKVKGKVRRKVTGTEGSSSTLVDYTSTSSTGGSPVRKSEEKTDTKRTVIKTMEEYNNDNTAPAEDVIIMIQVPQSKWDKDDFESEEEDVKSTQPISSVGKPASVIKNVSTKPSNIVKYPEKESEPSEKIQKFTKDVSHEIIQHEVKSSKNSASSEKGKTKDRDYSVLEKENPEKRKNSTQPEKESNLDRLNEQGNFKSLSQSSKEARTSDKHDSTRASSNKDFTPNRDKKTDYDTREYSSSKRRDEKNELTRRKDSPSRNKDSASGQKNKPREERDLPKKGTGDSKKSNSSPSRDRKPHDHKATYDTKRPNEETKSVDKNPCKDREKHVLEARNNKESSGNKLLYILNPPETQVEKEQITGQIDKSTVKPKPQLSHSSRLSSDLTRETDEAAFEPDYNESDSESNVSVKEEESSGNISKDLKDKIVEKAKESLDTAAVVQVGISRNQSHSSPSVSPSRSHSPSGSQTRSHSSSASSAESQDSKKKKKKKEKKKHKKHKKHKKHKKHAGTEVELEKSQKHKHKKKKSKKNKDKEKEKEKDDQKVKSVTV
UniProt O95639: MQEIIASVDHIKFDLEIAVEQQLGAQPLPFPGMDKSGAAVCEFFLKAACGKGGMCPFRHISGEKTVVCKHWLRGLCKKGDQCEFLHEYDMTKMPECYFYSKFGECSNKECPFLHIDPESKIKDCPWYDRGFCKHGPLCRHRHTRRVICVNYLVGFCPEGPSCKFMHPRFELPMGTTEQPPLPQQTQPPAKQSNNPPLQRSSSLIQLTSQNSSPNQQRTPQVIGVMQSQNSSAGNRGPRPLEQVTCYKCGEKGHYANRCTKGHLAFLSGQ

No constants are given. Whether binding was seen depends on the method and setting. In cells and extracts the contact can be indirect. Here binding means that the protein was enriched with, or labelled near, the bait; the list need not be complete. No binding means not detected with the bait. Sequences can lack the tags named with a protein.

B1: CStF64, endogenous (protein, UniProt P33240 1-577)
chain: MAGLTVRDPAVDRSLRSVFVGNIPYEATEEQLKDIFSEVGPVVSFRLVYDRETGKPKGYGFCEYQDQETALSAMRNLNGREFSGRALRVDNAASEKNKEELKSLGTGAPVIESPYGETISPEDAPESISKAVASLPPEQMFELMKQMKLCVQNSPQEARNMLLQNPQLAYALLQAQVVMRIVDPEIALKILHRQTNIPTLIAGNPQPVHGAGPGSGSNVSMNQQNPQAPQAQSLGGMHVNGAPPLMQASMQGGVPAPGQMPAAVTGPGPGSLAPGGGMQAQVGMPGSGPVSMERGQVPMQDPRAAMQRGSLPANVPTPRGLLGDAPNDPRGGTLLSVTGEVEPRGYLGPPHQGPPMHHVPGHESRGPPPHELRGGPLPEPRPLMAEPRGPMLDQRGPPLDGRGGRDPRGIDARGMEARAMEARGLDARGLEARAMEARAMEARAMEARAMEARAMEVRGMEARGMDTRGPVPGPRGPIPSGMQGPSPINMGAVVPQGSRQVPVMQGTGMQGASIQGGSQPGGFSPGQNQVTPQDHEKAALIMQVLQLTADQIAMLPPEQRQSILILKEQIQKSTGAP
B2: hFip1, endogenous (protein, UniProt Q6UN15 1-594)
chain: MSAGEVERLVSELSGGTGGDEEEEWLYGGPWDVHVHSDLAKDLDENEVERPEEENASANPPSGIEDETAENGVPKPKVTETEDDSDSDSDDDEDDVHVTIGDIKTGAPQYGSYGTAPVNLNIKTGGRVYGTTGTKVKGVDLDAPGSINGVPLLEVDLDSFEDKPWRKPGADLSDYFNYGFNEDTWKAYCEKQKRIRMGLEVIPVTSTTNKITAEDCTMEVTPGAEIQDGRFNLFKVQQGRTGNSEKETALPSTKAEFTSPPSLFKTGLPPSRNSTSSQSQTSTASRKANSSVGKWQDRYGRAESPDLRRLPGAIDVIGQTITISRVEGRRRANENSNIQVLSERSATEVDNNFSKPPPFFPPGAPPTHLPPPPFLPPPPTVSTAPPLIPPPGFPPPPGAPPPSLIPTIESGHSSGYDSRSARAFPYGNVAFPHLPGSAPSWPSLVDTSKQWDYYARREKDRDRERDRDRERDRDRDRERERTRERERERDHSPTPSVFNSDEERYRYREYAERGYERHRASREKEERHRERRHREKEETRHKSSRSNSRRRHESEEGDSHRRHKHKKSKRSKEGKEAGSEPAPEQESTEATPAE
B3: symplekin, endogenous (protein, UniProt Q92797 1-1274)
chain: MASGSGDSVTRRSVASQFFTQEEGPGIDGMTTSERVVDLLNQAALITNDSKITVLKQVQELIINKDPTLLDNFLDEIIAFQADKSIEVRKFVIGFIEEACKRDIELLLKLIANLNMLLRDENVNVVKKAILTMTQLYKVALQWMVKSRVISELQEACWDMVSAMAGDIILLLDSDNDGIRTHAIKFVEGLIVTLSPRMADSEIPRRQEHDISLDRIPRDHPYIQYNVLWEEGKAALEQLLKFMVHPAISSINLTTALGSLANIARQRPMFMSEVIQAYETLHANLPPTLAKSQVSSVRKNLKLHLLSVLKHPASLEFQAQITTLLVDLGTPQAEIARNMPSSKDTRKRPRDDSDSTLKKMKLEPNLGEDDEDKDLEPGPSGTSKASAQISGQSDTDITAEFLQPLLTPDNVANLVLISMVYLPEAMPASFQAIYTPVESAGTEAQIKHLARLMATQMTAAGLGPGVEQTKQCKEEPKEEKVVKTESVLIKRRLSAQGQAISVVGSLSSMSPLEEEAPQAKRRPEPIIPVTQPRLAGAGGRKKIFRLSDVLKPLTDAQVEAMKLGAVKRILRAEKAVACSGAAQVRIKILASLVTQFNSGLKAEVLSFILEDVRARLDLAFAWLYQEYNAYLAAGASGSLDKYEDCLIRLLSGLQEKPDQKDGIFTKVVLEAPLITESALEVVRKYCEDESRTYLGMSTLRDLIFKRPSRQFQYLHVLLDLSSHEKDKVRSQALLFIKRMYEKEQLREYVEKFALNYLQLLVHPNPPSVLFGADKDTEVAAPWTEETVKQCLYLYLALLPQNHKLIHELAAVYTEAIADIKRTVLRVIEQPIRGMGMNSPELLLLVENCPKGAETLVTRCLHSLTDKVPPSPELVKRVRDLYHKRLPDVRFLIPVLNGLEKKEVIQALPKLIKLNPIVVKEVFNRLLGTQHGEGNSALSPLNPGELLIALHNIDSVKCDMKSIIKATNLCFAERNVYTSEVLAVVMQQLMEQSPLPMLLMRTVIQSLTMYPRLGGFVMNILSRLIMKQVWKYPKVWEGFIKCCQRTKPQSFQVILQLPPQQLGAVFDKCPELREPLLAHVRSFTPHQQAHIPNSIMTILEASGKQEPEAKEAPAGPLEEDDLEPLTLAPAPAPRPPQDLIGLRLAQEKALKRQLEEEQKLKPGGVGAPSSSSPSPSPSARPGPPPSEEAMDFREEGPECETPGIFISMDDDSGLTEAALLDSSLEGPLPKETAAGGLTLKEERSPQTLAPVGEDAMKTPSPAAEDAREPEAKGNS
B4: CPSF73, endogenous (protein, UniProt Q9UKF6 1-684)
chain: MSAIPAEESDQLLIRPLGAGQEVGRSCIILEFKGRKIMLDCGIHPGLEGMDALPYIDLIDPAEIDLLLISHFHLDHCGALPWFLQKTSFKGRTFMTHATKAIYRWLLSDYVKVSNISADDMLYTETDLEESMDKIETINFHEVKEVAGIKFWCYHAGHVLGAAMFMIEIAGVKLLYTGDFSRQEDRHLMAAEIPNIKPDILIIESTYGTHIHEKREEREARFCNTVHDIVNRGGRGLIPVFALGRAQELLLILDEYWQNHPELHDIPIYYASSLAKKCMAVYQTYVNAMNDKIRKQININNPFVFKHISNLKSMDHFDDIGPSVVMASPGMMQSGLSRELFESWCTDKRNGVIIAGYCVEGTLAKHIMSEPEEITTMSGQKLPLKMSVDYISFSAHTDYQQTSEFIRALKPPHVILVHGEQNEMARLKAALIREYEDNDEVHIEVHNPRNTEAVTLNFRGEKLAKVMGFLADKKPEQGQRVSGILVKRNFNYHILSPCDLSNYTDLAMSTVKQTQAIPYTGPFNLLCYQLQKLTGDVEELEIQEKPALKVFKNITVIQEPGMVVLEWLANPSNDMYADTVTTVILEVQSNPKIRKGAVQKVSKKLEMHVYSKRLEIMLQDIFGEDCVSVKDDSILSVTVDGKTANLNLETRTVECEEGSEDDESLREMVELAAQRLYEALTPVH
B5: CPSF100, endogenous (protein, UniProt Q9P2I0 1-782)
chain: MTSIIKLTTLSGVQEESALCYLLQVDEFRFLLDCGWDEHFSMDIIDSLRKHVHQIDAVLLSHPDPLHLGALPYAVGKLGLNCAIYATIPVYKMGQMFMYDLYQSRHNTEDFTLFTLDDVDAAFDKIQQLKFSQIVNLKGKGHGLSITPLPAGHMIGGTIWKIVKDGEEEIVYAVDFNHKREIHLNGCSLEMLSRPSLLITDSFNATYVQPRRKQRDEQLLTNVLETLRGDGNVLIAVDTAGRVLELAQLLDQIWRTKDAGLGVYSLALLNNVSYNVVEFSKSQVEWMSDKLMRCFEDKRNNPFQFRHLSLCHGLSDLARVPSPKVVLASQPDLECGFSRDLFIQWCQDPKNSIILTYRTTPGTLARFLIDNPSEKITEIELRKRVKLEGKELEEYLEKEKLKKEAAKKLEQSKEADIDSSDESDIEEDIDQPSAHKTKHDLMMKGEGSRKGSFFKQAKKSYPMFPAPEERIKWDEYGEIIKPEDFLVPELQATEEEKSKLESGLTNGDEPMDQDLSDVPTKCISTTESIEIKARVTYIDYEGRSDGDSIKKIINQMKPRQLIIVHGPPEASQDLAECCRAFGGKDIKVYMPKLHETVDATSETHIYQVRLKDSLVSSLQFCKAKDAELAWIDGVLDMRVSKVDTGVILEEGELKDDGEDSEMQVEAPSDSSVIAQQKAMKSLFGDDEKETGEESEIIPTLEPLPPHEVPGHQSVFMNEPRLSDFKQVLLREGIQAEFVGGVLVCNNQVAVRRTETGRIGLEGCLCQDFYRIRDLLYEQYAIV

In the experiment the target is T1, endogenous WDR33 with a C-terminal HTBH tag (human (endogenous in HEK293T)) (UniProt Q9C0J8).
T1 sequence (chain, biotin on the biotin acceptor peptide of the tag (by endogenous enzymes)): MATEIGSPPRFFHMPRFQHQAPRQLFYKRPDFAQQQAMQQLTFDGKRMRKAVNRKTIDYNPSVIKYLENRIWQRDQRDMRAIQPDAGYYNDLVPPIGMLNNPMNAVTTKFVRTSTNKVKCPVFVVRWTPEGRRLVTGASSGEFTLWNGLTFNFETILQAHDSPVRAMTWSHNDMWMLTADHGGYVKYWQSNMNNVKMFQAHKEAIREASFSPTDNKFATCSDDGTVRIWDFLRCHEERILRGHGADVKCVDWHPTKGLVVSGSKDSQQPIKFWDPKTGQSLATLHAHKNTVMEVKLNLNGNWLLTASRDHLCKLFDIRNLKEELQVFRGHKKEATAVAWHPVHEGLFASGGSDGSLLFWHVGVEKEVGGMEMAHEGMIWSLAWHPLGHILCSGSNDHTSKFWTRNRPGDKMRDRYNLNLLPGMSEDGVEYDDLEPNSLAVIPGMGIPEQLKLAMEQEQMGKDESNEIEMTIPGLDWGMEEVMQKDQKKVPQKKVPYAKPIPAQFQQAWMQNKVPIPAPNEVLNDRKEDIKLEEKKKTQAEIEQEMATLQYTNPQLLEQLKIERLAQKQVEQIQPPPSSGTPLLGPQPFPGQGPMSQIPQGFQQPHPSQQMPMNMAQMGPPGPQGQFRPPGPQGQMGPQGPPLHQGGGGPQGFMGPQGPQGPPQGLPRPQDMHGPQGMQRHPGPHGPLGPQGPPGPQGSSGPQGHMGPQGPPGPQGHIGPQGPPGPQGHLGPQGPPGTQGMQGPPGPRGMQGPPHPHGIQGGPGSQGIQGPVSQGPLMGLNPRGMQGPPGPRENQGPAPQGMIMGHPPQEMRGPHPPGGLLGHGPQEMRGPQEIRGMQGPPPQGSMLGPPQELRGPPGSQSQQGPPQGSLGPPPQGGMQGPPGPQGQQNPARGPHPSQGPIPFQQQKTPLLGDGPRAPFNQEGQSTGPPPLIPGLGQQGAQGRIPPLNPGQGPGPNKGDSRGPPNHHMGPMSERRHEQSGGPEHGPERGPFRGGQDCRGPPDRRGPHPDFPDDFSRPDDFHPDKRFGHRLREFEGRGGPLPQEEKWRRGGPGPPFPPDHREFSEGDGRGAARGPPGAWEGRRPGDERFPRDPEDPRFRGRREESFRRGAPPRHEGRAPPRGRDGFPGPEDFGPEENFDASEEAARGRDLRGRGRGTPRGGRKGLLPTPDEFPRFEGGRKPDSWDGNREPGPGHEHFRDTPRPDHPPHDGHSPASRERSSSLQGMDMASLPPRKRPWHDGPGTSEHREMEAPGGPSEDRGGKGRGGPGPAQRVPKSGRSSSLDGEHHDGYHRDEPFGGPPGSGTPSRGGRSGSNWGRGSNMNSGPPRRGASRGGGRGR
Kind of experiment: affinity purification with mass spectrometry; endogenous CPSF held on Strep-Tactin beads by the biotinylated HTBH tag of WDR33, from HEK293T total cell extract (replicate 1) or nuclear extract (replicates 2 and 3); 300 mM NaCl or KCl; eluted with TEV protease; SDS-PAGE and tandem mass spectrometry.
Take “RBBP6, endogenous (from UniProt Q7Z6E9 1-1792)”: the binding entry is “no binding”. Then “CPSF30, endogenous (from UniProt O95639 1-269)”, with “binds”; and B1, with “binds”. For B2, the binding entry is recorded as “binds”. With B3 the entry was “binds”; with B4, “binds”. Then B5, with “binds”.
